The values below come from paper PMC8449257.

The chains behind the UniProt entries cited, without tags or fusion partners. Where a name states a change or a piece, a line headed by the entry shows the natural chain unless it says otherwise.
UniProt Q27874: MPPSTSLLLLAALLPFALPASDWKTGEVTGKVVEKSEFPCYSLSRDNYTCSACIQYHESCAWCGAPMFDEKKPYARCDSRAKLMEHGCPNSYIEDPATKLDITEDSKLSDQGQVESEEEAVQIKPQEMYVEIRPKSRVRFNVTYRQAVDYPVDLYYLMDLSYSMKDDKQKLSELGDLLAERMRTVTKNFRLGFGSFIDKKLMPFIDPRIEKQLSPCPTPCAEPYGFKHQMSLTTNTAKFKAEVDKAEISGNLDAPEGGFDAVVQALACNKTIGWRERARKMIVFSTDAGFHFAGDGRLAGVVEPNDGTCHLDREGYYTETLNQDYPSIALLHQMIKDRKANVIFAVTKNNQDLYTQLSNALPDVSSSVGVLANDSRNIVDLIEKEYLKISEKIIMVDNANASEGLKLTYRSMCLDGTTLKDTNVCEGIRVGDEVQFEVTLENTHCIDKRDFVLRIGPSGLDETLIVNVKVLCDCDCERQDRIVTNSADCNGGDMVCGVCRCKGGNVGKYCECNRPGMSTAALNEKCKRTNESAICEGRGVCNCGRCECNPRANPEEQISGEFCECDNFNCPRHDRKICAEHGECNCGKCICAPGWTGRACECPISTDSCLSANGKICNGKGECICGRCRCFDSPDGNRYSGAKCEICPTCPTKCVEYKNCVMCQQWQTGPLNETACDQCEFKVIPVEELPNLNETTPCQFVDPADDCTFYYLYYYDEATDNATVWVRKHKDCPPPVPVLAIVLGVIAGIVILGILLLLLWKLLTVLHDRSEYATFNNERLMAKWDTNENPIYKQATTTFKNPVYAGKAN

The experiment addresses PAT-3 (beta-integrin) (C. elegans) (UniProt Q27874). Description: two-hybrid; yeast PJ69-4A; UNC-112 forms as prey (pGAD-C3 or pACT-Q), PAT-4 or UNC-112C as bait (pGBDU); read-out is growth on His- (2 mM 3-amino-1,2,4-triazole in the screen) and Ade- plates.

Where a chain is given by its changes, count along the chain named. Names and notes keep the numbering of the source. These are yes or no findings as the source states them, for the method shown. Binding can be weak; no strength is given.

B1: UNC-112 (kindlin), wild type (protein, UniProt Q18685 1-720)
chain: MAHLVEGTSIIDGKWQLPILVTDLNIQRSISVLGNLNVGGLMLELVSECDVERDWSDHALWWPEKRRWLQHTRSTLDQNGITAETQLEFTPMHKEARIQLPDMQMIDARVDFSVNSFKATKKLCRDLGIRYSEELSLKRYIPPEDLRRGTSDADNMNGPLSMRPGEESVGPMTLRKAAPIFASQSNLDMRRRGQSPALSQSGHIFNAHEMGTLPRHGTLPRGVSPSPGAYNDTMRRTPIMPSISFSEGLENEQFDDALIHSPRLAPSRDTPVFRPQNYVEKAAINRGWLDSSRSLMEQGIFEGDIILLRFKFMNFFDLNPKYDPVRINQLYEQAKWSILLDEFDHTEEEATLFAALQLQATLQRDSPEPEENNKDDVDILLDELEQNLDAAALNRRSDLTQVPELADYLKYMKPKKLAAFKGFKRAFFSFRDLYLSYHQSSSDVNSAPLGHFSLKGCEVSQDVSVGQQKYHIKLLLPTAEGMIDFILKCDSEHQYARWMAACRLASRGKSMADSSYQQEVESIKNLLKMQSGNGNENGNSNTASRKAAAVKLPNDFNVDEYISSKYVRRARSKQQIQQRVSDAHGNVRQLTATEAKLQYIRAWQALPEHGIHYFIVRFRNARKAELVAVAVNRLAKLNMDNGESLKTWRFANMKKWHVNWEIRHLKIQFEDEDIEFKPLSADCKVVHEFIGGYIFLSMRSKEHSQNLDEELFHKLTGGWA
For the molecule B1, the binding entry is “binds”.

B2: UNC-112 E302G (full length) (protein, UniProt Q18685 1-720)
chain: B1 chain with E302G
Regarding B2, the binding entry was “binds”.
